The list shows a part of the results.

The chains behind the UniProt entries cited, without tags or fusion partners. Where a name states a change or a piece, a line headed by the entry shows the natural chain unless it says otherwise.
UniProt Q9BYG0: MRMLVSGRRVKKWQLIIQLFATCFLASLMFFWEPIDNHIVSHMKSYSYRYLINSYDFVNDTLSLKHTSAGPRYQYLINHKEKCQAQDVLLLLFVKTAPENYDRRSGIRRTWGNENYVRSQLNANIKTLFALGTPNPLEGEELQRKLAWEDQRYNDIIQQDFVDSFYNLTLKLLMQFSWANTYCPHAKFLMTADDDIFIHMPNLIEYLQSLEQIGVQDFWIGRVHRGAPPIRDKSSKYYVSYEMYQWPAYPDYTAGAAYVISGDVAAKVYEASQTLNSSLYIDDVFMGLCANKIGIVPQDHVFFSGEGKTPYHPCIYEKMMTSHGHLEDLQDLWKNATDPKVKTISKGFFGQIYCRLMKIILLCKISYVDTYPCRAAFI
UniProt P11274: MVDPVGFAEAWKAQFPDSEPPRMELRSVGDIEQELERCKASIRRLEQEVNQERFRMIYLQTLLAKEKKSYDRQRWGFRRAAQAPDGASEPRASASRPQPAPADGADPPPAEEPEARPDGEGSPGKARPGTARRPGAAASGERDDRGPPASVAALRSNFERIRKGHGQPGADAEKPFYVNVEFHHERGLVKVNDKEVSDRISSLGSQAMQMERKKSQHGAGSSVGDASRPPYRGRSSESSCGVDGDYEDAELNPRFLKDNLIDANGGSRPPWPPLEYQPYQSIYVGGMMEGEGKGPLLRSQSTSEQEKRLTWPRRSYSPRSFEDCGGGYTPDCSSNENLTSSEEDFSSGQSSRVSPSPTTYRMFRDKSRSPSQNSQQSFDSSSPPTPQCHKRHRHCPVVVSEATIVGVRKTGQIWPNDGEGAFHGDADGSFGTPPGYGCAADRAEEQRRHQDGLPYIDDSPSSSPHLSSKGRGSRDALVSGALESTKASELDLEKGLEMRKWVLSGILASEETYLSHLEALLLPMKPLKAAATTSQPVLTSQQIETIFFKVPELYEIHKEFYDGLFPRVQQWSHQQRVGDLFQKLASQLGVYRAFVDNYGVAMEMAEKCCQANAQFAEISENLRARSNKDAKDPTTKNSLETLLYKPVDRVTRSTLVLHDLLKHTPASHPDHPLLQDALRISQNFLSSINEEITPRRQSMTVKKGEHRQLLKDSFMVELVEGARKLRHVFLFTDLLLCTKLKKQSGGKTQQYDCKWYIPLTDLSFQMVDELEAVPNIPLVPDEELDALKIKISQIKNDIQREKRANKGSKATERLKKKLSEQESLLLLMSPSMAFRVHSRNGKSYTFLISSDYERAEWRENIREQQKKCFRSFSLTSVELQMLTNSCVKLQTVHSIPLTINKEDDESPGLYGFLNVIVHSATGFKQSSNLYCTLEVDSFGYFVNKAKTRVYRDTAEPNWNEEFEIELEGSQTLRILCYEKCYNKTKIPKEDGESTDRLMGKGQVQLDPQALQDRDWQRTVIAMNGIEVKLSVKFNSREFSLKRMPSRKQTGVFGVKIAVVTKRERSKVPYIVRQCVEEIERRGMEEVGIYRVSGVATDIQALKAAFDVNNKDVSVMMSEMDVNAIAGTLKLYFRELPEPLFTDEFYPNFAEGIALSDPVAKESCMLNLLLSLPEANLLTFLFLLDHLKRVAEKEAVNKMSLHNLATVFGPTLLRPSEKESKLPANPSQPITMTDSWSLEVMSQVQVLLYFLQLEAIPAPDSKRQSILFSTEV
UniProt Q9BQE9, whole entry, looked up: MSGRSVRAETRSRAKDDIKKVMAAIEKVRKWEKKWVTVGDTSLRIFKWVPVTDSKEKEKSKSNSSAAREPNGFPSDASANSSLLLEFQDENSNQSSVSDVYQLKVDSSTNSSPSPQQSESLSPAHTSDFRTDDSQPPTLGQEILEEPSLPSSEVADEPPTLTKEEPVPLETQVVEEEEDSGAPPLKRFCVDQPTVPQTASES
UniProt Q9BUT1: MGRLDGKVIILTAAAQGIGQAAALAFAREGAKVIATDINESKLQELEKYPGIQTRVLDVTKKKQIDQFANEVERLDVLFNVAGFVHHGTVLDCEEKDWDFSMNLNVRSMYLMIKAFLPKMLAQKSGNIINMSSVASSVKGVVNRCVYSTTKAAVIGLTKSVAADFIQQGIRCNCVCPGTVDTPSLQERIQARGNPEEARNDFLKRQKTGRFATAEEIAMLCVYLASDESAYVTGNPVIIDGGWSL
UniProt Q9UIG0: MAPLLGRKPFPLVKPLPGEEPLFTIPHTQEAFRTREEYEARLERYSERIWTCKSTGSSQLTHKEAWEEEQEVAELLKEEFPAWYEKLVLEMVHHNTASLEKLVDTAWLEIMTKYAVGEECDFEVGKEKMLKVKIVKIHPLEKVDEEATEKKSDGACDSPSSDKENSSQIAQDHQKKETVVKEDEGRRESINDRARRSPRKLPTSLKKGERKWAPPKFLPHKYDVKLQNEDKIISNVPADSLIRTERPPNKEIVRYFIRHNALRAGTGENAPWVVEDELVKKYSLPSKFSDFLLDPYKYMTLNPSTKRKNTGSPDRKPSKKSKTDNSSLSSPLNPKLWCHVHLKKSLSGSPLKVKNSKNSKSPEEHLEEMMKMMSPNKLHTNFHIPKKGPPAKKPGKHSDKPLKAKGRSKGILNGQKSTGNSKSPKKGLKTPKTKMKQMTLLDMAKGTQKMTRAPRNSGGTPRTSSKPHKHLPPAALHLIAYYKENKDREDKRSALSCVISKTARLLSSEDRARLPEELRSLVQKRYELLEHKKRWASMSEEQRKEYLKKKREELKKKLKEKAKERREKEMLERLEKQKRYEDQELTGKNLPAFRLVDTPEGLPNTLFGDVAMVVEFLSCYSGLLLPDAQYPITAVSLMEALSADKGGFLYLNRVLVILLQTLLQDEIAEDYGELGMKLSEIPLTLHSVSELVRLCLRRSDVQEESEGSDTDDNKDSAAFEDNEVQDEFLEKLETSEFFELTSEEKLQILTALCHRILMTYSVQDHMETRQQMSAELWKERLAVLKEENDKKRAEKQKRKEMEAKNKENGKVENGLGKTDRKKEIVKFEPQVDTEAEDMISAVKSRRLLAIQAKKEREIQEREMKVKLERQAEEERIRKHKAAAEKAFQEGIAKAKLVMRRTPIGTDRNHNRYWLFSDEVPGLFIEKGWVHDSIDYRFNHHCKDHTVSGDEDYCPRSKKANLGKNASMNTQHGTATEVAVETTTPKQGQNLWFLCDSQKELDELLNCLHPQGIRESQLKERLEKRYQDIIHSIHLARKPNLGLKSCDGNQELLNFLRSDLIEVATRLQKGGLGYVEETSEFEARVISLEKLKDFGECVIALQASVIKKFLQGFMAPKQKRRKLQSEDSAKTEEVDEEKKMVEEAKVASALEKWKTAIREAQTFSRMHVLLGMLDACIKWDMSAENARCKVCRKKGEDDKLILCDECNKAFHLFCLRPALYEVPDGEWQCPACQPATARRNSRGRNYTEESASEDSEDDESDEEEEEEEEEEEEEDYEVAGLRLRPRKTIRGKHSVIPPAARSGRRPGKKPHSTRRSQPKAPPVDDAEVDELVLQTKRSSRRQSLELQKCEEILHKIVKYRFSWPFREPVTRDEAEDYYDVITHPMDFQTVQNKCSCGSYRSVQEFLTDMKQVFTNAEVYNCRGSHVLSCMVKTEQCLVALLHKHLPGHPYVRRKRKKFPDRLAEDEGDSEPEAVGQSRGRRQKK
UniProt Q96B45: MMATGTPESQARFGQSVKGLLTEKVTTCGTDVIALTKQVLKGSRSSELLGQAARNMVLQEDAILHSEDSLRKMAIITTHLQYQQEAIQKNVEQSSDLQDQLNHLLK
UniProt P46100: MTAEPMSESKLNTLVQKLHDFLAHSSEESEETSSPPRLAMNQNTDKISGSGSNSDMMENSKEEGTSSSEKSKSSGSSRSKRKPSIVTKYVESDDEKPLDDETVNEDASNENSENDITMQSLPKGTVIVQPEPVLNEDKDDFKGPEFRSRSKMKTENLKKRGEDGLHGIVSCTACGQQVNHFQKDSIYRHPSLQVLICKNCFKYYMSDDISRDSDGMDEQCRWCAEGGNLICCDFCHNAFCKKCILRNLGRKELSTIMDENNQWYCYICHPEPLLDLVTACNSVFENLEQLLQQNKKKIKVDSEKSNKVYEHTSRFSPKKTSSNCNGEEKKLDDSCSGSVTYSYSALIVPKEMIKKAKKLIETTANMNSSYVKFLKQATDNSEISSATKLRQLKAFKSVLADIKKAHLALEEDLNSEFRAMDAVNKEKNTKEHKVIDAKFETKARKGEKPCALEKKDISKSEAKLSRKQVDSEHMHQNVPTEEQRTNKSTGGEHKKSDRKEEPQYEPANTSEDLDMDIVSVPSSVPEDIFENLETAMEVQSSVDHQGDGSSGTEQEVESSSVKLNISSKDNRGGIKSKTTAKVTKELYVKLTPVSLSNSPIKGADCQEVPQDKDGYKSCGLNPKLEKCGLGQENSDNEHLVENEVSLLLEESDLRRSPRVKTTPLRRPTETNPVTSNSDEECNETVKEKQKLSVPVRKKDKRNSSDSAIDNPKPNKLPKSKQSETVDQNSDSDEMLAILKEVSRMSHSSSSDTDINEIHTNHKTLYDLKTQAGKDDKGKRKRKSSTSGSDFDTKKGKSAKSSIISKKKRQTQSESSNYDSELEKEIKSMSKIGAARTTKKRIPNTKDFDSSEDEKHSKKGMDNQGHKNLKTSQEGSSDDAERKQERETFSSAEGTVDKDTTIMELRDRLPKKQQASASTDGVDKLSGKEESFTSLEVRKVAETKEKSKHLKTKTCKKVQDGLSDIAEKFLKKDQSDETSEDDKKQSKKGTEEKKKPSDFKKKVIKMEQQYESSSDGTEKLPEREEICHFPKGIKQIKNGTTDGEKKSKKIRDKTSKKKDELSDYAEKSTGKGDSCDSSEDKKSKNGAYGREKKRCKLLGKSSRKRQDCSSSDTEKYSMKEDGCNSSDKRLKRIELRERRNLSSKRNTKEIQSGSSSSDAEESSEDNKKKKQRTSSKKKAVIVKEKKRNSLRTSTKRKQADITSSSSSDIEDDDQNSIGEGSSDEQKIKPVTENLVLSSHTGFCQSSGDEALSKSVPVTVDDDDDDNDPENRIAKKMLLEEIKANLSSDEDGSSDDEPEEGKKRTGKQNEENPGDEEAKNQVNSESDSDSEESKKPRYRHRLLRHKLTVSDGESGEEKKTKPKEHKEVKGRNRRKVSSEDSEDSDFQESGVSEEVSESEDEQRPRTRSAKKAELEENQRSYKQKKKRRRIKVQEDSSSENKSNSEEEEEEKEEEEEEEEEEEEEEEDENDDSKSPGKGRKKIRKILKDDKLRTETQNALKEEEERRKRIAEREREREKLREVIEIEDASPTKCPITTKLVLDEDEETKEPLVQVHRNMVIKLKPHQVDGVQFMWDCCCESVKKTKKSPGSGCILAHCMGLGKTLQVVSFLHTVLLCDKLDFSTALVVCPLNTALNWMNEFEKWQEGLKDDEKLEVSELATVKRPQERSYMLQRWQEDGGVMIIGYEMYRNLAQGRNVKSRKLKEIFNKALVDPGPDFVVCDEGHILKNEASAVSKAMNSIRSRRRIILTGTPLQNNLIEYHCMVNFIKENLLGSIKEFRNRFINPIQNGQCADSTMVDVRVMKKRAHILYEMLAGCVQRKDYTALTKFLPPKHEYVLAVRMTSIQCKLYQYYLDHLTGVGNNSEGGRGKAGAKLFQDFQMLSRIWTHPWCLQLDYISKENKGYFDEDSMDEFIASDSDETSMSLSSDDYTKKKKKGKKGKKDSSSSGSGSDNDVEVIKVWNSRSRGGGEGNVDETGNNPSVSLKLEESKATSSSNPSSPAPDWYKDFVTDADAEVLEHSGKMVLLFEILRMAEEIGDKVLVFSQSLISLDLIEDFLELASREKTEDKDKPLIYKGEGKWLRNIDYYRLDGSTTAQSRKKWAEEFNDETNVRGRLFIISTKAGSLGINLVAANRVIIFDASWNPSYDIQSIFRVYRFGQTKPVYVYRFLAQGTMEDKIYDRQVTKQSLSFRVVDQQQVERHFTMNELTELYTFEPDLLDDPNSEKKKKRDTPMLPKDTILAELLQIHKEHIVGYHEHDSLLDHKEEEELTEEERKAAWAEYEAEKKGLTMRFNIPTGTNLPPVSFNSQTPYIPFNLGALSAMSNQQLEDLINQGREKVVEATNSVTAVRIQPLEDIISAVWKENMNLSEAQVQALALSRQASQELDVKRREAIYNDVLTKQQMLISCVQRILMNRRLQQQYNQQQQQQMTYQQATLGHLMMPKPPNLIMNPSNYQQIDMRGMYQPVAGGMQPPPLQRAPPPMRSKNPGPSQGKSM
UniProt Q9NWD9: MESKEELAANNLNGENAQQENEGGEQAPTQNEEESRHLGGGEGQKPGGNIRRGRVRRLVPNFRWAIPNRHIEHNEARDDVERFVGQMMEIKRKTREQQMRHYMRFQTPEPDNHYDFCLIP
UniProt Q4VC05, whole entry, looked up: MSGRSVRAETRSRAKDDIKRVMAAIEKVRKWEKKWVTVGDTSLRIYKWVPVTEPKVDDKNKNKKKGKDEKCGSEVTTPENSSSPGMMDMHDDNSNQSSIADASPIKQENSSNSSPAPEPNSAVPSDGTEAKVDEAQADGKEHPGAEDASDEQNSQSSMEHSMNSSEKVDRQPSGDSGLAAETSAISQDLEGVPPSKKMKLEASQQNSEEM

What all share (assay): log2 fold change, soluble protein after heating vs DMSO (PISA); higher = thermal stabilisation; K562 cells, 10 uM, 30 min; active = over 0.2 and 3.5 SD of the protein, either way, in both replicates (recomputed)
Compound in assay [1]: CC1=C(SC2=C1C(=N[C@H](C3=NN=C(N32)C)CC(=O)N)C4=CC=C(C=C4)Cl)C
The procedure, abridged:
(§1)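 K562 cells at 2×10^6 cells/mL were given 10 μM compound for 30 min. Aliquots then went through 3 min of heating across 48°C-58°C, were pooled, and were extracted in PBS with 0.5% NP-40 at 4°C, and the supernatant after 21,000xg for 90 min was quantified by TMTpro 16plex LC-MS/MS with channel sums equalised. Thermal stability relative to control samples, from duplicates, is given as log2 fold change.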

Compound in assay [2]: c1ccc([C@@H]2C[C@H]2NC2CCNCC2)cc1
The method in brief:
as §1

Compound in assay [3]: CC1=C2C(=CC=C1)N=C(N(C2=O)C3=CC=CC=C3C)CN4C=NC5=C(N=CN=C54)N
The procedure, abridged: as §1

Compound in assay [4]: Cc1sc2c(c1C)C(c1ccc(Cl)cc1)=N[C@@H](CC(=O)OC(C)(C)C)c1nnc(C)n1-2
The method in brief:
as §1

Compound in assay [5]: C1=CC=C(C=C1)[C@H](COC2=CC3=C(C=C2)NC(=O)N3)NC(=O)C4=CC=CN(C4=O)CC5=CC(=C(C=C5)F)F
The procedure, abridged: as §1

As for ATXN2 (UniProt F8W0B5), the log2 fold change in assay [1] is inactive: -0.125; in assay [2], inactive: -0.029.
On to BLZF1 (UniProt Q9H2G9), for which the values for the log2 fold change in assay [1] and in assay [2] were inactive: 0.094 and inactive: 0.09, respectively.
For BRCA1 isoform 7 (UniProt P38398), the log2 fold change in assay [3] was inactive: -0.355.
For BRAF, A0A2R8Y8E0, the log2 fold change in assay [4] is inactive: 0.162.
On the same count and under the same terms, the figure for BRMS1 (UniProt Q9HCU9) is inactive: -0.011.
In the case of AURKAIP1 (UniProt Q9NWT8), the log2 fold change in assay [1] was inactive: -0.282; in assay [3] it was inactive: -0.33; in assay [4], inactive: 0.062; in assay [2], inactive: 0.059.
As to BLVRA (UniProt C9J1E1), the log2 fold change in assay [5] was inactive: -0.04; in assay [1] it was inactive: -0.013; in assay [3], inactive: 0.078; in assay [2], inactive: 0.26.
Regarding BAP18 isoform 3 (UniProt Q8IXM2), in assay [4], the log2 fold change was inactive: 0.041.
On to BCL2L11 (UniProt O43521), for which the log2 fold change in assay [1] is inactive: 0.042; in assay [3], inactive: -0.022; in assay [4] it was inactive: -0.048; in assay [2], inactive: -0.015.
For the target B3GNT5 (UniProt Q9BYG0), the log2 fold change in assay [5] was inactive: -0.1; in assay [1], inactive: -0.021; in assay [3] it was inactive: 0.106; in assay [2], inactive: 0.029.
Take AUNIP isoform 2 (UniProt Q9H7T9): the log2 fold change in assay [1] is inactive: 0.031; in assay [3] it was inactive: 0.086; in assay [4] it was inactive: -0.001; in assay [2], inactive: -0.014.
As to BCR (UniProt P11274), the log2 fold change in assay [5] was inactive: 0.126; in assay [1] it was inactive: -0.157; in assay [4] it was inactive: 0.32; in assay [2], inactive: 0.154.
As to BCL7B (UniProt Q9BQE9), the log2 fold change was inactive: -0.141 in assay [1], inactive: 0.075 in assay [3] and inactive: -0.056 in assay [2].
Take BDH2 (UniProt Q9BUT1): the log2 fold change in assay [5] was inactive: -0.033; in assay [1], inactive: 0.087; in assay [3] it was inactive: -0.213; in assay [2] it was inactive: 0.12.
For the target BAZ1B (UniProt Q9UIG0), the log2 fold change is inactive: 0.047 in assay [1], inactive: 0.085 in assay [3] and inactive: -0.125 in assay [2].
As for BCAS3 isoform 8 (UniProt Q9H6U6), the log2 fold change was inactive: -0.05 in assay [1], inactive: 0.126 in assay [4] and inactive: 0.016 in assay [2].
In the case of BAD (UniProt Q92934), the log2 fold change was inactive: -0.001 in assay [5], inactive: -0.042 in assay [1], inactive: -0.086 in assay [3] and inactive: 0.032 in assay [2].
Turning to BCL7C isoform 2 (UniProt Q8WUZ0), the log2 fold change in assay [5] is inactive: 0.094; in assay [1], inactive: 0.04; in assay [2], inactive: -0.038.
Regarding AXIN1 (UniProt O15169), the log2 fold change in assay [3] was inactive: 0.212.
As to B3GALNT2 (UniProt Q8NCR0), the log2 fold change in assay [5] is inactive: 0.018; in assay [3] it was inactive: 0.093; in assay [4], inactive: 0.005.
In the case of BAIAP2 isoform 4 (UniProt Q9UQB8), the log2 fold change is inactive: 0.029 in assay [1], inactive: -0.206 in assay [4] and inactive: 0.151 in assay [2].
On to AZI2 (UniProt Q9H6S1), for which the log2 fold change in assay [5] was inactive: 0.034; in assay [3], inactive: -0.047; in assay [4], inactive: 0.136.
In the case of BNIP3L (UniProt O60238), the log2 fold change was inactive: 0.277 in assay [1], inactive: 0.169 in assay [3], inactive: 0.009 in assay [4] and inactive: 0.044 in assay [2].
On to BORCS7 (UniProt Q96B45), for which the log2 fold change in assay [5] is inactive: 0; in assay [1] it was inactive: 0.195; in assay [3] it was inactive: 0.129; in assay [4], inactive: -0.083; in assay [2] it was inactive: -0.196.
On to ATRX (UniProt P46100), for which the figures for the log2 fold change in assay [1] and in assay [2] were inactive: 0.048 and inactive: -0.143, respectively.
Regarding BCL2L12 (UniProt Q9HB09), the log2 fold change in assay [5] is inactive: 0.21; in assay [1], inactive: 0.147; in assay [3] it was inactive: -0.04; in assay [2], inactive: 0.015.
For BNIP3 (UniProt Q12983), the log2 fold change in assay [5] was inactive: -0.01; in assay [3], inactive: 0.11; in assay [4], inactive: 0.006.
For the target AVEN (UniProt Q9NQS1), the log2 fold change in assay [5] was inactive: -0.063; in assay [1], inactive: -0.052; in assay [3] it was inactive: -0.027; in assay [2] it was inactive: -0.027.
Take BCL9 (UniProt O00512): the log2 fold change is inactive: 0.033 in assay [1], inactive: 0.172 in assay [3], inactive: -0.086 in assay [4] and inactive: -0.084 in assay [2].
In the case of BCDIN3D (UniProt Q7Z5W3), the log2 fold change is inactive: -0.024 in assay [5], inactive: -0.236 in assay [1], inactive: 0.074 in assay [4] and inactive: -0.025 in assay [2].
Regarding AURKB isoform 5 (UniProt Q96GD4), the log2 fold change in assay [3] is inactive: -0.179; in assay [4], inactive: 0.14.
Consider BORCS8 (UniProt Q96FH0), for which the log2 fold change in assay [4] is inactive: -0.046.
In the case of BEX4 (UniProt Q9NWD9), the values for the log2 fold change in assay [5], in assay [1] and in assay [2] were inactive: -0.016, inactive: 0.031 and inactive: 0.114, respectively.
On to BCL7A isoform 2 (UniProt Q4VC05), for which, in assay [4], the log2 fold change was inactive: -0.012.
For BIN1 (UniProt O00499), the log2 fold change in assay [3] was inactive: 0.157.
